Assay results published in article PMC5865411.
No constants are given. Whether binding was seen depends on the method and setting. Binding seen in cells or lysates may run through a third protein. Some binding calls cover weakened binding; strength is not graded here.

Sequences of proteins named here, by UniProt entry; tags and fusion partners are left off.
UniProt Q8IUC6: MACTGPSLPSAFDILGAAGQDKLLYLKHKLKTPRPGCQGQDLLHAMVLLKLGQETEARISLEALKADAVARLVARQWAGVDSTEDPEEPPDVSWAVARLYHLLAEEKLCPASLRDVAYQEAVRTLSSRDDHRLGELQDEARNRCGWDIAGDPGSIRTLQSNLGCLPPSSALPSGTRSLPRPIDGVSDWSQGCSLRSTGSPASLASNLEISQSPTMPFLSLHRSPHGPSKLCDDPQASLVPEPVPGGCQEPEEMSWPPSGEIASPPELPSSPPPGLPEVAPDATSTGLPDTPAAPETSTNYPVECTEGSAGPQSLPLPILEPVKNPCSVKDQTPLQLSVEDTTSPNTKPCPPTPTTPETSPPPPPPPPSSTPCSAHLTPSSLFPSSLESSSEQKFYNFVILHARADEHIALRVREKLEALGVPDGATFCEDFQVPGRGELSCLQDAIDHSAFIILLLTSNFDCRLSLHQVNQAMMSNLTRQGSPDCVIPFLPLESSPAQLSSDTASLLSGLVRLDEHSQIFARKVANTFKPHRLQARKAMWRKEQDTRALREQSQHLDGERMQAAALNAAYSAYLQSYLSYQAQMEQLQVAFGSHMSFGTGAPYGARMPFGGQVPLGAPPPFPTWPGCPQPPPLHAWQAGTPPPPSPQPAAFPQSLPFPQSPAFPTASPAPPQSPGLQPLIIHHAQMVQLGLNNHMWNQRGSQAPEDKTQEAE
UniProt Q99836: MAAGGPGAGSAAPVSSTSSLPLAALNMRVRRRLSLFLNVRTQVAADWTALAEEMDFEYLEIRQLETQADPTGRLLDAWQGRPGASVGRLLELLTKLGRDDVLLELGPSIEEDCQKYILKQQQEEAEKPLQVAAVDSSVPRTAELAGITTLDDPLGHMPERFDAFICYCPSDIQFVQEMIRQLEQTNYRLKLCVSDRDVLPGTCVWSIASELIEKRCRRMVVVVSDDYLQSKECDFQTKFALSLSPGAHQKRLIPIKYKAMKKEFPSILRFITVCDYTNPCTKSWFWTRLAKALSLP

Key:
[1] = target: T1, Toll-like receptor-10 (human (endogenous in THP-1)) (UniProt Q9BXR5); assay: co-IP; THP-1 cells transfected with 10 µg/ml poly(I:C), different time points; lysis in 50 mM Tris, 150 mM NaCl, 0.5% IGEPAL CA-630, pH 7.5; anti-TLR10 antibody (sc-30198) and Protein G agarose at 4°C; Western blotting with anti-MyD88 or anti-TRIF
T1 sequence: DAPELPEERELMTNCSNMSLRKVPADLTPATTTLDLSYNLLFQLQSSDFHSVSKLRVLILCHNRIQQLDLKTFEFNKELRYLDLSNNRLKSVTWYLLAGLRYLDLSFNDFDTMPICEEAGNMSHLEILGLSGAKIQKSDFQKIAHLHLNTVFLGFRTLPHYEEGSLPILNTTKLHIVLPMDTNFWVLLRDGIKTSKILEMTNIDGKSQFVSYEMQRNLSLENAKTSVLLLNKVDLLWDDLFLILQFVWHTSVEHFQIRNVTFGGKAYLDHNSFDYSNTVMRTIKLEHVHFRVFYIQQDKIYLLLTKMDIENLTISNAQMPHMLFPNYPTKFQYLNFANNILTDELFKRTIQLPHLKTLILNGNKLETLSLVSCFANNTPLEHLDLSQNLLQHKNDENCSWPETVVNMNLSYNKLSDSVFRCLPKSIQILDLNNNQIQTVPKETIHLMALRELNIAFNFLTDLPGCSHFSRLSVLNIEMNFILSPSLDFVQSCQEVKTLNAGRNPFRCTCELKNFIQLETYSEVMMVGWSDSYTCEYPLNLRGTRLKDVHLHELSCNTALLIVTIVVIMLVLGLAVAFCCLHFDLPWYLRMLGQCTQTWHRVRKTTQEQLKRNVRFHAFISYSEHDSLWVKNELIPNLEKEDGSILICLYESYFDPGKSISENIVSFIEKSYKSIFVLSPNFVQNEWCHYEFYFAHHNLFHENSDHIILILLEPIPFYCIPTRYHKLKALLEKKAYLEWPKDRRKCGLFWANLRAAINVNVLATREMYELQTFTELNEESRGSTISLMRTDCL

[2] = target: T1, Toll-like receptor-10 (human (endogenous in THP-1)); assay: co-IP; THP-1 cells, mock transfection without poly(I:C); lysis in 50 mM Tris, 150 mM NaCl, 0.5% IGEPAL CA-630, pH 7.5; anti-TLR10 antibody (sc-30198) and Protein G agarose at 4°C; Western blotting with anti-MyD88

binding [1]	binding [2]	Substance
no binding	–	TIR-domain-containing adaptor-inducing IFNβ (from UniProt Q8IUC6 1-712)
binds	binds weakly	myeloid differentiation primary response gene 88 (from UniProt Q99836 1-296)
